Paper PMC12083691
No constants are given. Whether binding was seen depends on the method and setting. Binding seen in cells or lysates may run through a third protein. These calls come from enrichment with a bait or labelling near it, and not all partners need be listed. For some of these results: A no says only that the protein was not detected with the bait. Where a sequence is shown, tags or fusion partners need not be part of it.

Sequences of proteins named here, by UniProt entry; tags and fusion partners are left off. A change or cut given only in a name is not applied to a line headed by its entry.
UniProt Q8IJ32: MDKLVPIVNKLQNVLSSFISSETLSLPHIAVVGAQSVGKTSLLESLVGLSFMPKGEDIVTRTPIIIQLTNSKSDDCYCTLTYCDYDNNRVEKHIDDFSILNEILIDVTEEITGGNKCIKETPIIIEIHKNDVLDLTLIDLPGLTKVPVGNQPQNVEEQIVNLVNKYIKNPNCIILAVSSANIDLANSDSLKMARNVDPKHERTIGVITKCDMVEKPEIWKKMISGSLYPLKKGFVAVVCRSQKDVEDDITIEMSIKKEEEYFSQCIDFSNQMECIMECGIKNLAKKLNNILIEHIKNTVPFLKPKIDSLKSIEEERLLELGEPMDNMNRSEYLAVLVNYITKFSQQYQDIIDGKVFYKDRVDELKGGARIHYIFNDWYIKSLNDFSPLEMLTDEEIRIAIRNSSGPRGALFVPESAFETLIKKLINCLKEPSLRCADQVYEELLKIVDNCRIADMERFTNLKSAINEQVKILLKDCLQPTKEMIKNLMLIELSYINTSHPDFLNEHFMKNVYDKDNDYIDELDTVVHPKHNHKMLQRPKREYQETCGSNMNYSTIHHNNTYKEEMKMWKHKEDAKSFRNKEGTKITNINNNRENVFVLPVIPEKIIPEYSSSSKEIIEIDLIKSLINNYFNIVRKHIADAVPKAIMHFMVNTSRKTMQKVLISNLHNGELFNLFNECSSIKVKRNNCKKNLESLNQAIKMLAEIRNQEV
UniProt Q8IB24: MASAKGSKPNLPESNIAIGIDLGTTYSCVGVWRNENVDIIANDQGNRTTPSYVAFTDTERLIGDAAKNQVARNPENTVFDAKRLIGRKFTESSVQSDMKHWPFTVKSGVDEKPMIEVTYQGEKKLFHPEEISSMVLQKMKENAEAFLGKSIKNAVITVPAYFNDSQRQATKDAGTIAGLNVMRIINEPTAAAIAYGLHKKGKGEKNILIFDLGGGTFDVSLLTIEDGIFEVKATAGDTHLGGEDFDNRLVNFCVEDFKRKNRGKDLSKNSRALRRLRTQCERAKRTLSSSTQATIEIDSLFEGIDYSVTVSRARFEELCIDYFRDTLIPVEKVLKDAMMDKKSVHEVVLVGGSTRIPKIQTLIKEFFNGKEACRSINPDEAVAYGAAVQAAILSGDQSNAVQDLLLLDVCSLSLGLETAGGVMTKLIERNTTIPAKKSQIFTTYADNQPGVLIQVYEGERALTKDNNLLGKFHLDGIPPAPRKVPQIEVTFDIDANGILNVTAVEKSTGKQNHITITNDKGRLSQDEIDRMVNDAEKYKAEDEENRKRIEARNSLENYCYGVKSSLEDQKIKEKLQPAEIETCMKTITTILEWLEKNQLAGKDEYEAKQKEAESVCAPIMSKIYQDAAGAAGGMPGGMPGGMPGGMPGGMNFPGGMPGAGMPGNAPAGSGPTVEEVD
UniProt Q8I4X0: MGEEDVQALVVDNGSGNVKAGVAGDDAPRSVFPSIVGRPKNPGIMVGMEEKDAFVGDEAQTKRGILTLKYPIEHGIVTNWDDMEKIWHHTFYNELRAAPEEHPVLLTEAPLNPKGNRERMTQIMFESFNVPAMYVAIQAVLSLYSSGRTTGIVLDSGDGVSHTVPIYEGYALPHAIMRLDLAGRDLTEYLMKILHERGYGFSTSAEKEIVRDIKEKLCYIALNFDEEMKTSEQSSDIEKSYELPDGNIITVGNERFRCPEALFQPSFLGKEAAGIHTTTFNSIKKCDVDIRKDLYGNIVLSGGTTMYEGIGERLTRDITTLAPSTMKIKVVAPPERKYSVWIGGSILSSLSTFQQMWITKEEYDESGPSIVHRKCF

Key:
[1] = target: T1, PfAnchor-BirA-HA (Plasmodium falciparum) (UniProt C6KSX8); assay: proximity labelling; BioID with PfAnchor-BirA-HA as bait in parasites; streptavidin magnetic beads on RIPA lysates, LC-MS; two biological replicates; untagged parental parasites as control
T1 sequence: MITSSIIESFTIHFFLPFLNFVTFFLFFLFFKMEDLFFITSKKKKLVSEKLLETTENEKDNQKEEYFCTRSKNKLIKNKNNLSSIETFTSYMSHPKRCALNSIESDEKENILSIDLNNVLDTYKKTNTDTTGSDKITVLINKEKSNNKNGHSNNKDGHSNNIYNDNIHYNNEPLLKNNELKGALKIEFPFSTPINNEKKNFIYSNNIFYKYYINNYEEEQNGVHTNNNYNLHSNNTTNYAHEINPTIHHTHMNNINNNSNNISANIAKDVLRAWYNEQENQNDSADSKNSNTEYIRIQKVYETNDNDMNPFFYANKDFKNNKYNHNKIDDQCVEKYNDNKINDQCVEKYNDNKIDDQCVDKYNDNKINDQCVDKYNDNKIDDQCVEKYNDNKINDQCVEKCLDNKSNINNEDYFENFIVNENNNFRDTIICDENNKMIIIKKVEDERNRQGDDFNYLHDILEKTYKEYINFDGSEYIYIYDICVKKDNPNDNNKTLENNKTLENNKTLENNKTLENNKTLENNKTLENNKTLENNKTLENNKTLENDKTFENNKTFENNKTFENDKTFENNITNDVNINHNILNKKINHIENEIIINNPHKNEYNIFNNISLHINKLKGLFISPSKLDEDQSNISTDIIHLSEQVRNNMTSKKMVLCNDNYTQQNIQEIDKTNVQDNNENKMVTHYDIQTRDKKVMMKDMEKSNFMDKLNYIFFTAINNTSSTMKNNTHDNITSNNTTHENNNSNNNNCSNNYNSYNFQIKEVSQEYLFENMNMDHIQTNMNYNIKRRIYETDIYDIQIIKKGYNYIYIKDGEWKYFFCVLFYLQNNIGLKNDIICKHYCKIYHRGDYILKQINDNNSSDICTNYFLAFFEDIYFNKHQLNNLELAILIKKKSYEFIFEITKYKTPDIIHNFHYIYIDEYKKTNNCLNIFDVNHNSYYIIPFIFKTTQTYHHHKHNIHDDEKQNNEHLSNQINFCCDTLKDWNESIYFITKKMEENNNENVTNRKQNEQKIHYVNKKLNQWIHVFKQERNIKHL

[2] = target: T2, PfAnchor (Pf3D7_0613600) with C-terminal spaghetti monster-V5 tag (Plasmodium falciparum) (UniProt C6KSX8); assay: affinity purification with mass spectrometry; anti-V5 magnetic beads incubated overnight at 4 °C with cleared RIPA lysates of PfAnchor iKD and PfAnchor^Mev iKD parasites; on-bead digestion, LC-MS; untagged parental 3D7-Cas9 as control; biological duplicates
T2 sequence: T1 sequence

Q: How did the binding [1] turn out when “PfDyn2 (Pf3D7_1037500), dynamin-like GTPase (from UniProt Q8IJ32)” was run?
A: binds

Q: What about the binding [2] of the same substance?
A: binds

Q: With “PfHsp70 (PF3D7_0818900) (from UniProt Q8IB24 1-677)” as the substance, how does the binding [2] read?
A: binds

Q: How did the binding [2] turn out when PfMCM5 was run?
A: no binding

Q: Which binding [2] does the source give for “P. falciparum Minichromosome Maintenance-binding protein (PfMCMBP), endogenous” here?
A: no binding

Q: PfCinch, a basal complex protein was tested. Which binding [2] did it give?
A: binds

Q: How did the binding [2] turn out when PfActin1 (from UniProt Q8I4X0 1-376) was run?
A: binds
